Test system: human alu-consnesus sequence
Assay: Real-time qPCR (Example 9)
Type: biochemical
Details: Hex filter set
Experimental: PCR was performed on human genomic DNA obtained from 0.16 million human peripheral blood leukocytes by direct lysis in a volume of 1 ml as described by Christopherson et al, PCR-Based Assay To Quantify Human Immunodeficiency Virus Type 1 DNA In Peripheral Blood Mononuclear Cells, 2000, J Clin Microbiol., pp. 630-634, Vol. 38. […] Additionally, a non-template control containing deionised water as sample was used. Two μl per sample were then used for real-time PCR as follows: PCR reactions were run in JumpStart™ ReadyMix™ (Sigma Aldrich, order number p2893), containing salt, buffer, Taq-DNA polymerase and deoxynucleotidetriphosphates in a final volume of 32 μl. PCR primers were added to a final concentration of 1 μM. To obtain optimal performance in real time PCR, the PCR mix was supplemented with additional MgCL2 to a final concentration of 3 mM. The DNA binding dye Nancy-520 was added to a final concentration of 200 nM. PCR primers mf39 (5′-[…]-3′) and mf40 (5′-[…]-3′) were used at a final concentration of 1 μM. […]
Data (FIG. 9A, 9C, 9D) were analyzed using the IQ5 software (version 2.0) or by linear regression analysis (FIG. 9B) using the statistical software GraphPad Prism version 5.01 (GraphPad Software, Inc., La Jolla, Calif.) […]

Structure (SMILES): CN1C(c2ccccc2)=C/C(=C\c2sc3ccccc3[n+]2CCCCO)c2ccccc21 [Compound 9]
- observed slope of log10 copy numbers versus ct-values (expected −0.301): −0.29
- efficiency of the PCR (from linear regression): 97%

From US20100041045A1, “NUCLEIC ACID FLUORESCENT STAINS” (SIGMA-ALDRICH CO., priority 2007, published 2010)
